Test results as given in PMC12107940.
No constants are given. Whether binding was seen depends on the method and setting. In cells and extracts the contact can be indirect. Some results given as binding are weak or reduced against the parent protein; the word gives no strength.

Target: T1, TRIM29 (human (endogenous in HCC1806)), Q14134
T1 chain: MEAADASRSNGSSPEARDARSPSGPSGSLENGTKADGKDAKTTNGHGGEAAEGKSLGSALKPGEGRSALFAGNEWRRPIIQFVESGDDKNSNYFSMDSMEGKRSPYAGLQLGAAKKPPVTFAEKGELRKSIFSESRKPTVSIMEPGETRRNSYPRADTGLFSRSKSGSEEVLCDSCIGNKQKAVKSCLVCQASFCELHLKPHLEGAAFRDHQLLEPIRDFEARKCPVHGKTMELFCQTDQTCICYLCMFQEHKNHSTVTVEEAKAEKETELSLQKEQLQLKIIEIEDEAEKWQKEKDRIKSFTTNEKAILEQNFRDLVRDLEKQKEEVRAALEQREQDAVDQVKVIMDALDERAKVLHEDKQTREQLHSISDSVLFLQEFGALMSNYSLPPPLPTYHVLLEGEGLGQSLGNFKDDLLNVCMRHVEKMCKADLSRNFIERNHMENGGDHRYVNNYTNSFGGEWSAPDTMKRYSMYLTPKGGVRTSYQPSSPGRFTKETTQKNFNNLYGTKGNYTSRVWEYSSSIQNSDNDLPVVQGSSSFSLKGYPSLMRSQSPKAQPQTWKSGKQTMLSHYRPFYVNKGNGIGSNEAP
Assay: co-IP; immunoprecipitation with TRIM29, immunoblot for β-catenin; endogenous proteins in HCC1806 and carboplatin-resistant HCC1806-CarboR cells
Conditions: remark: other sources report otherwise

binding: binds
B1: β-catenin, P35222 1-781 (protein)
chain: MATQADLMELDMAMEPDRKAAVSHWQQQSYLDSGIHSGATTTAPSLSGKGNPEEEDVDTSQVLYEWEQGFSQSFTQEQVADIDGQYAMTRAQRVRAAMFPETLDEGMQIPSTQFDAAHPTNVQRLAEPSQMLKHAVVNLINYQDDAELATRAIPELTKLLNDEDQVVVNKAAVMVHQLSKKEASRHAIMRSPQMVSAIVRTMQNTNDVETARCTAGTLHNLSHHREGLLAIFKSGGIPALVKMLGSPVDSVLFYAITTLHNLLLHQEGAKMAVRLAGGLQKMVALLNKTNVKFLAITTDCLQILAYGNQESKLIILASGGPQALVNIMRTYTYEKLLWTTSRVLKVLSVCSSNKPAIVEAGGMQALGLHLTDPSQRLVQNCLWTLRNLSDAATKQEGMEGLLGTLVQLLGSDDINVVTCAAGILSNLTCNNYKNKMMVCQVGGIEALVRTVLRAGDREDITEPAICALRHLTSRHQEAEMAQNAVRLHYGLPVVVKLLHPPSHWPLIKATVGLIRNLALCPANHAPLREQGAIPRLVQLLVRAHQDTQRRTSMGGTQQQFVEGVRMEEIVEGCTGALHILARDVHNRIVIRGLNTIPLFVQLLYSPIENIQRVAAGVLCELAQDKEAAEAIEAEGATAPLTELLHSRNEGVATYAAAVLFRMSEDKPQDYKKRLSVELTSSLFRTEPMAWNETADLGLDIGAQGEPLGYRQDDPSYRSFHSGGYGQDALGMDPMMEHEMGGHHPGADYPVDGLPDLGHAQDLMDGLPPGDSNQLAWFDTDL
